Laboratory results reported in the supplement of paper PMC4604168 (melanoma cell lines).
This is one part of the list. Repeats are few or missing, and single values can be far off.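 Imaging used 1,536-well plates; nuclei positive for cleaved PARP by antibody were divided by total DNA-stained nuclei to yield the apoptosis fraction. Doses for screening kept most cells viable, and cell lines differ markedly in resting and induced cleaved-PARP levels.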

Key:
Assay in all cases: cleaved PARP positive nuclei fraction relative to DMSO control; melanoma cells; higher = more apoptosis
Settings in all cases: library dose: low library concentration; 72 h
WM115 = tested on: WM115
WM1716 = tested on: WM1716
WM1745 = tested on: WM1745
WM3526 = tested on: WM3526
WM3619 = tested on: WM3619
WM451Lu = tested on: WM451Lu

Structure (SMILES) | cleaved PARP positive nuclei fraction (WM115) [%] | cleaved PARP positive nuclei fraction (WM1716) [%] | cleaved PARP positive nuclei fraction (WM1745) [%] | cleaved PARP positive nuclei fraction (WM3526) [%] | cleaved PARP positive nuclei fraction (WM3619) [%] | cleaved PARP positive nuclei fraction (WM451Lu) [%]
CN(C)S(=O)(=O)c1ccc2c(c1)/C(=C/c1cc3c([nH]1)CCCC3)C(=O)N2 + Cc1cc([N+](=O)[O-])ccc1NS(=O)(=O)c1cc(Cl)ccc1Cl [FH535] (first compound 0.4 µM, partner dose 1 µM) | 273 | 79.8 | 114 | 61.7 | 70.5 | 129
Cc1cc([N+](=O)[O-])ccc1NS(=O)(=O)c1cc(Cl)ccc1Cl + c1cc(-c2cnn3cc(-c4ccc(OCCN5CCCCC5)cc4)cnc23)ccn1 [Dorsomorphin] (first compound 1 µM, partner dose 0.4 µM) | 178 | 58.1 | 125 | 80.9 | 78.7 | 137
CCc1ccc(CCOc2ccc(CC3SC(=O)NC3=O)cc2)nc1 (configuration not stated) [pioglitazone] + COc1ccc(-c2ccc3c(N4CCOCC4)nc(N4C[C@@H](C)O[C@@H](C)C4)nc3n2)cc1CO [KU0063794] (first compound 2 µM, partner dose 0.02 µM) | 86.6 | 28.6 | 108 | 58.1 | 59.1 | 118
CN(C)S(=O)(=O)c1ccc2c(c1)/C(=C/c1cc3c([nH]1)CCCC3)C(=O)N2 + O=C(O)c1ccc(-c2c[nH]c3ncc(-c4ccccc4)cc23)cc1C1CCCC1 [GSK650394] (first compound 0.4 µM, partner dose 0.16 µM) | 136 | 93.7 | 89.5 | 46.5 | 80.9 | 30.9
CN(C)S(=O)(=O)c1ccc2c(c1)/C(=C/c1cc3c([nH]1)CCCC3)C(=O)N2 + O=C1NC(=O)/C(=C/c2ccc(-c3ccc(F)cc3O)o2)S1 [AS252424] (first compound 0.4 µM, partner dose 1 µM) | 301 | 113 | 119 | 66.6 | 93.6 | 61.1
CN(NC(=O)CC(=O)NN(C)C(=S)c1ccccc1)C(=S)c1ccccc1 + Oc1nc(-c2ccc(C(F)(F)F)cc2)nc2c1CSCC2 [XAV939] (first compound 0.006 µM, partner dose 2 µM) | 87.8 | 90.9 | 128 | 78.6 | 97 | 148
CCN(CC)CCCCNc1ncc2cc(-c3cc(OC)cc(OC)c3)c(NC(=O)NC(C)(C)C)nc2n1 + CC(C)CCN1c2nc(Nc3cc(F)c(O)c(F)c3)ncc2N(C)C(=O)C1C [BID1870] (first compound 0.1 µM, partner dose 0.2 µM) | 76.5 | 76.5 | 112 | 36.9 | 71.7 | 84.5
COc1cc2ncnc(Nc3ccc(Oc4ccccc4)cc3)c2cc1OC + CC(C)CCN1c2nc(Nc3cc(F)c(O)c(F)c3)ncc2N(C)C(=O)C1C [BID1870] (first compound 2 µM, partner dose 0.2 µM) | 93.8 | 75.2 | 106 | 64.5 | 79 | 104
CN(C)S(=O)(=O)c1ccc2c(c1)/C(=C/c1cc3c([nH]1)CCCC3)C(=O)N2 + CCCCCCCCCCCC1=C(O)C(=O)C=C(O)C1=O [Embelin] (first compound 0.4 µM, partner dose 1.2 µM) | 274 | 106 | 105 | 54.9 | 77.3 | 60.1
O=C(O)C(=O)Nc1sc2c(c1C(=O)O)CCNC2 + c1cc(-c2cnn3cc(-c4ccc(OCCN5CCCCC5)cc4)cnc23)ccn1 [Dorsomorphin] (first compound 1.66667 µM, partner dose 0.4 µM) | 177 | 63.1 | 120 | 38.7 | 52.8 | 297
O=C1NC(=O)/C(=C/c2ccc(-c3ccc(F)cc3O)o2)S1 + CCCCCCCCCCCC1=C(O)C(=O)C=C(O)C1=O [Embelin] (first compound 1 µM, partner dose 1.2 µM) | 80.5 | 121 | 98.3 | 31.8 | 77.7 | 160
COC(=O)c1sccc1S(=O)(=O)Nc1ccc(Nc2ccccc2)cc1OC + O=C1NC(=O)/C(=C/c2ccc(-c3ccc(F)cc3O)o2)S1 [AS252424] (first compound 1 µM, partner dose 1 µM) | 161 | 124 | 126 | 79.1 | 99.7 | 240
N#Cc1c(O)c2c(-c3ccc(-c4ccccc4O)cc3)csc2[nH]c1=O + COc1cc(N2CCC(N3CCN(C)CC3)CC2)ccc1Nc1ncc(Cl)c(Nc2ccccc2S(=O)(=O)C(C)C)n1 [NVP-TAE684] (first compound 2 µM, partner dose 0.08 µM) | 60.4 | 194 | 98.1 | 121 | 149 | 86
COc1ccc(COc2ccc(Cc3cnc(N)nc3N)cc2OC)cc1 + Cn1cc(/C=C2\C(=O)Nc3cccnc32)c2ccccc21 [GW441756] (first compound 1 µM, partner dose 0.4 µM) | 105 | 117 | 109 | 72.2 | 64.3 | 53.5
O=C(O)c1ccc(-c2c[nH]c3ncc(-c4ccccc4)cc23)cc1C1CCCC1 + N#Cc1c(O)c2c(-c3ccc(-c4ccccc4O)cc3)csc2[nH]c1=O [A769662] (first compound 0.16 µM, partner dose 2 µM) | 157 | 115 | 97.9 | 74.5 | 81.3 | 406
O=C(O)c1ccc(-c2c[nH]c3ncc(-c4ccccc4)cc23)cc1C1CCCC1 + COC(=O)c1sccc1S(=O)(=O)Nc1ccc(Nc2ccccc2)cc1OC [GSK0660] (first compound 0.16 µM, partner dose 1 µM) | 21.7 | 75.3 | 100 | 96.7 | 106 | 64.5
Cc1cc([N+](=O)[O-])ccc1NS(=O)(=O)c1cc(Cl)ccc1Cl + O=c1cc(-c2cccc3c2Sc2ccccc2S3)oc(N2CCOCC2)c1 [KU55933] (first compound 1 µM, partner dose 1 µM) | 131 | 23.4 | 120 | 73.7 | 84.4 | 58
COc1ccc2c(c1)CCC1C2CCC2(C)C(NCCCCCCN3C(=O)C=CC3=O)CCC12 (configuration not stated) + O=C1NC(=O)/C(=C/c2ccc(-c3ccc(F)cc3O)o2)S1 [AS252424] (first compound 0.4 µM, partner dose 1 µM) | 54.2 | 121 | 125 | 109 | 376 | 84.4
c1cc(-c2cnn3cc(-c4ccc(OCCN5CCCCC5)cc4)cnc23)ccn1 [Dorsomorphin] + CC(C)CCN1c2nc(Nc3cc(F)c(O)c(F)c3)ncc2N(C)C(=O)C1C [BID1870] (first compound 0.4 µM, partner dose 0.2 µM) | 101 | 132 | 102 | 76.5 | 596 | 124
Oc1cc(-c2nc(-c3ccccc3)[nH]c2-c2ccncc2)ccc1Cl + Cn1cc(/C=C2\C(=O)Nc3cccnc32)c2ccccc21 [GW441756] (first compound 0.2 µM, partner dose 0.4 µM) | 282 | 40 | 123 | 95.4 | 88 | 104
COC(=O)c1sccc1S(=O)(=O)Nc1ccc(Nc2ccccc2)cc1OC + O=C(O)C(=O)Nc1sc2c(c1C(=O)O)CCNC2 [TCS401] (first compound 1 µM, partner dose 1.66667 µM) | 92 | 114 | 98.8 | 60.3 | 91.3 | 123
COc1cc2c(Oc3ccc4[nH]c(C)cc4c3F)ncnc2cc1OCCCN1CCCC1 [cediranib] + COC(=O)c1sccc1S(=O)(=O)Nc1ccc(Nc2ccccc2)cc1OC [GSK0660] (first compound 0.4 µM, partner dose 1 µM) | 152 | 102 | 115 | 76.5 | 79.9 | 38.6
COc1ccc2c(c1)CCC1C2CCC2(C)C(NCCCCCCN3C(=O)C=CC3=O)CCC12 (configuration not stated) + Oc1nc(-c2ccc(C(F)(F)F)cc2)nc2c1CSCC2 [XAV939] (first compound 0.4 µM, partner dose 2 µM) | 73.2 | 329 | 109 | 32.7 | 91.8 | 144
COC(=O)c1sccc1S(=O)(=O)Nc1ccc(Nc2ccccc2)cc1OC + COc1ccc2c(c1)CCC1C2CCC2(C)C(NCCCCCCN3C(=O)C=CC3=O)CCC12 [U73122] (first compound 1 µM, partner dose 0.4 µM) | 128 | 58.9 | 110 | 367 | 92.6 | 29.3
COc1cc(N2CCC(N3CCN(C)CC3)CC2)ccc1Nc1ncc(Cl)c(Nc2ccccc2S(=O)(=O)C(C)C)n1 + Cn1cc(/C=C2\C(=O)Nc3cccnc32)c2ccccc21 [GW441756] (first compound 0.08 µM, partner dose 0.4 µM) | 116 | 80.5 | 107 | 37.7 | 85.4 | 311
O=C1NC(=O)/C(=C/c2ccc(-c3ccc(F)cc3O)o2)S1 + COc1cc(N2CCC(N3CCN(C)CC3)CC2)ccc1Nc1ncc(Cl)c(Nc2ccccc2S(=O)(=O)C(C)C)n1 [NVP-TAE684] (first compound 1 µM, partner dose 0.08 µM) | 105 | 99.9 | 93.3 | 114 | 89.5 | 188
O=C(Nc1ccccc1)c1cc([N+](=O)[O-])ccc1Cl + CCCCCCCCCCCC1=C(O)C(=O)C=C(O)C1=O [Embelin] (first compound 2 µM, partner dose 1.2 µM) | 96.2 | 62.3 | 113 | 81.7 | 91.7 | 267

Taken from above.
Entry for CN(C)S(=O)(=O)c1ccc2c(c1)/C(=C/c1cc3c([nH]1)CCCC3)C(=O)N2 + O=C1NC(=O)/C(=C/c2ccc(-c3ccc(F)cc3O)o2)S1 [AS252424] (first compound 0.4 µM, partner dose 1 µM) under cleaved PARP positive nuclei fraction (WM1716) [%]: 113
Entry for COc1ccc(COc2ccc(Cc3cnc(N)nc3N)cc2OC)cc1 + Cn1cc(/C=C2\C(=O)Nc3cccnc32)c2ccccc21 [GW441756] (first compound 1 µM, partner dose 0.4 µM) under cleaved PARP positive nuclei fraction (WM115) [%]: 105
